According to PMC9301129:
No constants are given. Whether binding was seen depends on the method and setting. Binding seen in cells or lysates may run through a third protein. Some results given as binding are weak or reduced against the parent protein; the word gives no strength. Where a sequence is shown, tags or fusion partners need not be part of it.

By UniProt entry, the sequences of proteins in these tests, tags left out.
UniProt P22366: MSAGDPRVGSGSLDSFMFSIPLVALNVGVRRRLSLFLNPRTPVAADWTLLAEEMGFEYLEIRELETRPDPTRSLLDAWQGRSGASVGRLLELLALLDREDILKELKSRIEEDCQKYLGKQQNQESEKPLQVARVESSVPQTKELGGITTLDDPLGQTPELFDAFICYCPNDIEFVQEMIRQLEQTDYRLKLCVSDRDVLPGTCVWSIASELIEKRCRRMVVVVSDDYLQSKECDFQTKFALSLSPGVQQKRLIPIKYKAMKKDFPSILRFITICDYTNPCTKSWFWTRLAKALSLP

Tests used:
[1] = molecular target: T1, TLR9-myc (in UNC93B1 KO iBMDMs) (UniProt Q9EQU3); test: co-IP; UNC93B1 KO iBMDMs expressing TLR9-myc and UNC93B1-GFP (wild type or mutant), unstimulated; TLR9-myc precipitated from cell lysates; MyD88 detected with anti-MyD88
T1 sequence: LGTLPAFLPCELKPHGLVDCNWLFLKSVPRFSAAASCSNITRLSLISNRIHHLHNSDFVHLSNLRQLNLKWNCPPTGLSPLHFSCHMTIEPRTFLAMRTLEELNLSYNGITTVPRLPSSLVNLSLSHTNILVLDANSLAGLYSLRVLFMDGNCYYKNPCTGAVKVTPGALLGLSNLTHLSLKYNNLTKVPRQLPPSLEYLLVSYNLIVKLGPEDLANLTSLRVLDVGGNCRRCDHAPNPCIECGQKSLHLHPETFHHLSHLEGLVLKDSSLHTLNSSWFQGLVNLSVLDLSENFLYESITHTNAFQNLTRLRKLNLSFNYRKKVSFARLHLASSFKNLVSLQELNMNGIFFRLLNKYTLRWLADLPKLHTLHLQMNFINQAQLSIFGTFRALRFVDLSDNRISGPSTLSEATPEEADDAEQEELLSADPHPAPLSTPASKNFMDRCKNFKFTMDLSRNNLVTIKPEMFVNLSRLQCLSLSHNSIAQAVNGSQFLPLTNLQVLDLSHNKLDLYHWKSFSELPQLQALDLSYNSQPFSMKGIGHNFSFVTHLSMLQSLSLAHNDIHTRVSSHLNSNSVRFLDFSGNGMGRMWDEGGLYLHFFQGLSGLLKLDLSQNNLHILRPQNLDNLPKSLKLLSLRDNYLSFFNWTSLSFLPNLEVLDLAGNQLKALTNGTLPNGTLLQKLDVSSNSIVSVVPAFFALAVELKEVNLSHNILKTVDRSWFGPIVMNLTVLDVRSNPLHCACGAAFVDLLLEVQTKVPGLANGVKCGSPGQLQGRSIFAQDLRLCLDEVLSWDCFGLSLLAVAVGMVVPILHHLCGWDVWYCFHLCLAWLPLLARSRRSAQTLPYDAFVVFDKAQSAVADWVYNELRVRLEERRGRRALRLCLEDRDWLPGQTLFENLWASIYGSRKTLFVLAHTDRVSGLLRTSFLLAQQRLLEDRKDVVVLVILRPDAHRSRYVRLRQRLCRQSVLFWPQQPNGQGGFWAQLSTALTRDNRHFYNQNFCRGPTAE

[2] = molecular target: T1, TLR9-myc (in UNC93B1 KO iBMDMs); test: co-IP; UNC93B1 KO iBMDMs expressing TLR9-myc and UNC93B1-GFP (N272Q or N251Q/N272Q), stimulated with 1 μM CpG DNA for 2 h; TLR9-myc precipitated from cell lysates; MyD88 detected with anti-MyD88

binding [2]: binds weakly
Substance: MyD88 (from UniProt P22366 1-296)
binding [1]: no binding (condition: without CpG DNA stimulation)
